US20130129720A1, “Combination Cancer Therapies with Wortmannin Analogs” (ONCOTHYREON INC., priority 2010, published 2013)
For at least one compound, name, drawing or mass did not settle the structure.

Legend:
advanced solid tumors = assay: Phase I trial of oral PX-866: response per RECIST; format: in vivo, human; details: patients with 1 to 7 prior treatments and subsequent progression
Method: Patient response was evaluated according to Response Evaluation Criteria in Solid Tumors (RECIST). Briefly, all measurable lesions up to a maximum of five lesions, representative of all involved organs were identified as target lesions and recorded and measured at baseline. Target lesions were selected on the basis of their size (lesions with the longest diameter) and their suitability for accurate repeated measurements (either by imaging techniques or clinically). A sum of the longest diameter (LD) for all target lesions was calculated and reported as the baseline sum LD. The baseline sum LD was used as reference by which to characterize the objective tumor. All other lesions (or sites of disease) were identified as non-target lesions and were also be recorded at baseline. Measurements of these lesions were not required, but the presence or absence of each was noted throughout follow-up.
A Complete Response (CR) indicated a disappearance of all target lesions.

CUHN015 tumors = assay: direct patient tumor model of SCCHN, CUHN015; format: in vivo, nude mice; details: PX-866 2 mg/kg 5 out of 7 days; docetaxel 20 mg/kg IP weekly
Method: Briefly, these models employed direct implantation of patients' tumors into nude mice according to Keysar et al., J Clin Oncol 28:15s, 2010 (suppl. abstruct 5558).
Animals were treated with PX-866 alone, and in combination with 20 mg/kg docetaxel dosed intraperitoneally (IP) on a weekly schedule. Saline treated animals and 20 mg/kg docetaxel dosed animals served as controls for the study.

[1] = system: PI-3K pathway (p-mTOR and p-S6); assay: Phase I trial: pharmacodynamics in PBMCs stimulated ex vivo, FACS based assay; design: species or system human; details: PBMCs of treated patients
Method: The pharmacodynamic effects of PX-866 in patients treated in the phase I single agent study were assessed using isolated peripheral blood mononuclear cells (PBMCs) stimulated ex vivo via FACS based assay. […] The study provided Evidence for pathway inhibition lasting up to 3 days post-treatment.

[2] = system: A549 lung tumor xenografts; details: mouse, in vivo
Method: H460 and A549 lung tumor xenografts were implanted subcutaneously in nude mice according to previously described procedures. PX-866 was tested on both a daily (2 mg/kg) and every-other-day dosing (3 mg/kg) schedule alone, and in combination with a 10 mg/kg dose of docetaxel. The dosing schedule of PX-866 relative to docetaxel was varied to test the effect of docetaxel treatment prior to or subsequent to PX-866 treatment. A table of the following dosing regimens is as follows with animals in Group 1 receiving a daily vehicle: […]

Compound: C=CCN(/C=C1/C(=O)O[C@H](COC)[C@@]2(C)C1=C(O)C(=O)C1=C2[C@H](OC(C)=O)C[C@]2(C)C(=O)CC[C@@H]12)CC=C [PX-866, Acetic acid 4-diallylaminomethylene-6-hydroxy-1-α-methoxymethyl-10β,13β-dimethyl-3,7,17-trioxo-1,3,4,7,10,11β,12,13,14α,15,16,17-dodecahydro-2-oxa-cyclopenta[α]phenanthren-11-yl ester]
- effect on disease in prior treated patients (advanced solid tumors): stabilized disease
- tumor growth (CUHN015 tumors): delay in tumor growth
- effect on PI-3K pathway (p-mTOR, p-S6) [1]: inhibition of the PI-3K pathway
- tumor growth delay relative to the control group [2]: greater tumor growth delay
